# Results taken from PubChem BioAssay (NCATS).
# Protein sequences, listed by entry. Tags and fused reporters are not part of them. Lines headed by an entry give the natural chain unless they say otherwise; changes in a name come on top.
# UniProt P21964: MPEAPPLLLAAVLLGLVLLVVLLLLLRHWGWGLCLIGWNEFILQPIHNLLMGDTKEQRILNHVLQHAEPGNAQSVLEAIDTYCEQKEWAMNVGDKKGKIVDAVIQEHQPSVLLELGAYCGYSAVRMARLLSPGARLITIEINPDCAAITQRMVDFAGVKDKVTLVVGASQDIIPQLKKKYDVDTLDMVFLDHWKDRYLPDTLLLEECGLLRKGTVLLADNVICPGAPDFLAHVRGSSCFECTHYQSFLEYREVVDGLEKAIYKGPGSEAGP
# UniProt P11086: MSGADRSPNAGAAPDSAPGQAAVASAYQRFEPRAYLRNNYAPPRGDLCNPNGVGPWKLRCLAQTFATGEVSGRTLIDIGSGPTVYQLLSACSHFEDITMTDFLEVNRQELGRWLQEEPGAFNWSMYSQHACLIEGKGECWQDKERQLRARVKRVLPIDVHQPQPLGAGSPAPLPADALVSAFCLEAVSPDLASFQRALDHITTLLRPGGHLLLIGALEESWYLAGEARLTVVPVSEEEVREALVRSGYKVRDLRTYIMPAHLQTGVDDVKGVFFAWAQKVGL
# This is one part of the list. The main result of the screen is listed elsewhere. These columns were measured beside it and carry no call. For part of these data: Most of these compounds were active or inconclusive in the main read-out, so they are no random draw. For part of these data: Potencies come from curve fits of mixed quality, noted in brackets.
# What was measured:
# [1] = Validation of Assay for Modulators of Lamin A Splicing (AID 1459); conditions: Lamin A splicing dual RFP/GFP fluorescence reporter, ratio
# How it was run: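 S3 HeLa stably expressing lamin A-EGFP splicing minigene and DsRed2, 600 cells/well in Opti-MEM with 2% FBS, treated 48 h at 37C; laser-scanning cytometry gives GFP/RFP total intensity ratio; ancitabine positive control, 0.5% DMSO vehicle.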
# [2] = qHTS Assay for Modulators of Human Peripheral Myelin Protein 22 (PMP22) Expression/Activity (AID 1967); conditions: Cell-based PMP22 reporter, dual-color luciferase ratio
# How it was run: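 Mouse MSC80 Schwann cells carrying Pmp22 promoter–green click beetle luciferase plus EF-alpha–red luciferase control, dosed 24 h at 37 °C. Dual-filter luminescence, overlap-corrected; %Activity from green/red ratio normalised to untreated cells, concentration-response curves fitted.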
# [3] = Nrf2 qHTS screen for inhibitors: Validation (AID 493153); conditions: A549 ARE-Fluc reporter, 18-24 h; AC50: CellTiter-Fluor fluorescence read, measured here: cytotoxicity CellTiter-Fluor AC50; viability change: measured here: cytotoxicity max response
# How it was run: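 In this counterscreened reporter format, each well gives two signals: CellTiter-Fluor fluorescence for cytotoxicity and ARE-luciferase luminescence for Nrf2 function. A549 ARE_Fluc cells in 5% FBS OPTI-MEM were exposed to compound titrations for 18-24 h.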
# [4] = target: Catechol O-methyltransferase (Homo sapiens) (UniProt P21964); experiment: Confirmatory Screen for Target Class Profiling of Small Molecule Inhibitors of Methyltransferases (AID 1745852); conditions: MTase-Glo luminescence, SAH detection, recombinant enzyme; measured here: COMT inhibition potency
# [5] = target: Phenylethanolamine N-methyltransferase (Homo sapiens) (UniProt P11086); experiment: as above; conditions: MTase-Glo luminescence, SAH detection, recombinant enzyme; measured here: PNMT inhibition potency
# [6] = qHTS Validation Assay to Find Inhibitors of Chronic Active B-Cell Receptor Signaling (AID 485345); conditions: ABC-DLBCL cells, chronic BCR signaling reporter
# How it was run: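 Read-out: ratio of filter-corrected green (IkappaBalpha fusion) to red (native) luciferase signal in doxycycline-induced TMD8 cells after 4 h at 37C. Titration spanned 46 uM–3 nM; Data were normalised to basal cells and 10 uM MG-132 wells.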
# [7] = qHTS assay for small molecule antagonists of peroxisome proliferator-activated receptor delta signaling (AID 588535); conditions: HEK293T PPARd-UAS-bla, beta-lactamase FRET ratio, 18 h; 460 nm channel;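 further: cells co-treated with a PPAR-delta agonist as stimulator during compound exposure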
# How it was run: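 Antagonist-mode qHTS using GeneBLAzer PPAR-delta-UAS-bla HEK293T cells; compound exposure 18 hrs at 37 C over a titration. Ratiometric CCF4 fluorescence at 460/530 nm; concentration-response points fitted to the Hill equation.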
# [8] = qHTS Assay for Lipid Storage Modulators (AID 1519); conditions: Drosophila S3 cells, BODIPY lipid droplet/cell ratio, laser cytometry, cells loaded with oleic acid
# How it was run: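 Cells seeded at 5,000 per well were treated with compounds over a concentration series and loaded with oleic acid (400 uM, as added). Lipid droplet fluorescence (488 nm excitation, 500-530 nm channel) was read by laser-scanning cytometry and normalized to 20 uM Triacsin C.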
# [9] = S16 Schwann cell PMP22 intronic element beta-lactamase assay (AID 624044); conditions: S16 rat Schwann cells, PMP22 element beta-lactamase FRET, 24 h
# How it was run: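 Beta-lactamase reporter under a PMP22 intronic regulatory element in stable S16 rat Schwann cells; 24 h compound exposure. 460 nm blue signal normalized between DMSO (0%) and potassium clavulanate, with 535 nm FRET tracking viability; curves classed by r2 and response.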
# [10] = qHTS drug screen for cell cycle checkpoint inhibitors in PARPi-resistant BRCA-mutant ovarian cancer cell lines. (AID 1963452); conditions: PEO1/OlaR viability, CellTiter-Glo luminescence, 96 h
# How it was run: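 PEO1, PEO4 and PEO1/OlaR ovarian cancer cells, 600 per well, exposed 96 h at 37C to a dilution series. Viability read by CellTiter-Glo luminescence, normalized to DMSO and empty wells; activity summarized as Z-AUC.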
# [11] = qHTS Assay for Inhibitors of PDE-IV (AID 607); conditions: HEK293 ACTOne CNG channel cells, membrane potential fluorescence; measured here: parental cell counter-screen
# How it was run: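 The readout is membrane depolarisation from a cAMP-sensing CNG channel, detected with a potential dye at ex 535/em 590. Cells were HEK293-derived (endogenous PDE-IV) at 1000 cells/well, titrated up to 22.9 uM final.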
# [12] = measured here: red reporter channel AC50, EF-alpha promoter control reporter in MSC80 mouse Schwann cells
# [13] = measured here: CBG/CBR ratio read-out
# [14] = measured here: CBR control luciferase (viability counter)
# [15] = measured here: green reporter channel AC50, mouse Pmp22 promoter in mouse Schwann cells
# [16] = measured here: cell count channel max response
# [17] = measured here: cell number channel AC50
# [18] = measured here: lipid (BODIPY) channel AC50
# [19] = measured here: lipid channel max response
compound,measurement,setting,value
O=C(c1cc(O)c(O)c([N+](=O)[O-])c1)c1ccccc1F,AC50,[1]; measured here: GFP channel,"35.5 µM [falling, single point]"
same,AC50,[1]; measured here: RFP channel,"35.5 µM [falling, single point]"
same,AC50,[2]; [12],"95.3 µM [falling, single point]"
same,AC50,[3],"16.4 µM [falling, single point]"
same,viability change,[3],-30.2%
same,IC50,[4],"0.0217 µM [falling, full curve]"
same,IC50,[5],"24.3 µM [falling, partial curve, poor fit]"
C/C(=C\c1ccc(C(=O)O)cc1)c1ccc2c(c1)C(C)(C)CCC2(C)C,AC50,[1]; measured here: GFP channel,"35.5 µM [falling, single point]"
same,AC50,[1]; measured here: RFP channel,"25.1 µM [falling, partial curve]"
same,AC50,[2]; [12],"84.9 µM [falling, partial curve, poor fit]"
same,AC50,[6]; [13],"7.31 µM [falling, partial curve]"
same,AC50,[6]; [14],"0.00651 µM [rising, full curve, poor fit]"
same,viability change,[3],-8.84%
same,max response,[7],87.4%
Clc1nccc2c1ccc1ccccc12,AC50,[1]; measured here: GFP channel,"12.6 µM [rising, single point]"
same,AC50,[1]; measured here: RFP channel,"12.6 µM [rising, single point]"
same,AC50,[2]; [15],"1.07 µM [rising, full curve, poor fit]"
same,viability change,[3],5.73%
CC(=O)N[C@@H](Cc1c[nH]c2ccccc12)C(=O)OCc1cc(C(F)(F)F)cc(C(F)(F)F)c1,AC50,[1]; measured here: GFP channel,"35.5 µM [rising, single point]"
same,max response,[8]; [16],81.1%
same,AC50,[8]; [17],"5.01 µM [rising, full curve]"
same,AC50,[8]; [18],"5.01 µM [rising, full curve]"
same,max response,[8]; [19],124%
COc1cc(NS(C)(=O)=O)ccc1Nc1c2ccccc2nc2ccccc12,AC50,[1]; measured here: GFP channel,"0.794 µM [falling, full curve]"
same,AC50,[1]; measured here: RFP channel,"0.794 µM [falling, full curve]"
same,AC50,[2]; [15],"26.9 µM [falling, partial curve]"
same,AC50,[2]; [12],"0.0849 µM [falling, full curve]"
same,AC50,[3],"11.6 µM [falling, partial curve]"
same,viability change,[3],-60.6%
same,AC50,[9]; measured here: 460 nm blue channel,"0.251 µM [falling, full curve]"
same,AC50,[9]; measured here: 530 nm viability channel,"8.91 µM [rising, partial curve]"
same,AC50,[10]; measured here: PEO1 parental viability,"0.174 µM [falling, full curve]"
same,AC50,[10]; measured here: PEO4 viability,"2.45 µM [falling, partial curve]"
S=C(Nc1ccccc1)Nc1nccs1,AC50,[1]; measured here: GFP channel,"3.98 µM [falling, full curve]"
same,AC50,[1]; measured here: RFP channel,"5.01 µM [falling, partial curve, poor fit]"
same,AC50,[2]; [15],"23.9 µM [falling, full curve]"
same,AC50,[2]; [12],"37.9 µM [falling, full curve, poor fit]"
same,AC50,[6]; [13],"18.4 µM [falling, single point]"
same,AC50,[6]; [14],"16.4 µM [falling, single point]"
Cc1ccc(/C(=C\CN2CCCC2)c2ccccn2)cc1,AC50,[1]; measured here: GFP channel,"25.1 µM [falling, single point]"
same,AC50,[1]; measured here: RFP channel,"25.1 µM [falling, single point]"
same,AC50,[2]; [12],"2.69 µM [rising, full curve, poor fit]"
Cc1nc2sccn2c(=O)c1CCN1CCC(=C(c2ccc(F)cc2)c2ccc(F)cc2)CC1,AC50,[11],"15.8 µM [rising, partial curve]"
same,AC50,[1]; measured here: GFP channel,"31.6 µM [falling, single point]"
same,AC50,[1]; measured here: RFP channel,"25.1 µM [falling, partial curve]"
same,AC50,[2]; [15],"67.5 µM [falling, partial curve]"
same,AC50,[2]; [12],"53.6 µM [falling, partial curve]"
same,AC50,[6]; [14],"29.1 µM [falling, single point]"
CCC1(O)CC2CN(CCc3c([nH]c4ccccc34)[C@@](C(=O)OC)(c3cc4c(cc3OC)N(C=O)C3[C@]45CCN4CC=C[C@@](CC)([C@@H](OC(C)=O)[C@]3(O)C(=O)OC)[C@H]45)C2)C1 (stereo partly specified),AC50,[1]; measured here: GFP channel,"0.02 µM [falling, full curve, poor fit]"
same,AC50,[1]; measured here: RFP channel,"0.0447 µM [falling, full curve, poor fit]"
same,AC50,[2]; [15],"84.9 µM [falling, single point]"
same,AC50,[2]; [12],"95.3 µM [falling, single point]"
same,AC50,[6]; [13],"0.731 µM [falling, full curve]"
same,AC50,[6]; [14],"1.84 µM [rising, full curve]"
same,AC50,[3],"1.3 µM [falling, full curve]"
same,viability change,[3],-30%
CC(=O)OCC1=C(C(=O)O)N2C(=O)[C@@H](NC(=O)CSc3ccncc3)[C@H]2SC1,AC50,[1]; measured here: GFP channel,"11.2 µM [rising, partial curve, poor fit]"
same,max response,[8]; [16],61.7%
same,AC50,[8]; [17],"39.8 µM [rising, single point]"
same,AC50,[8]; [18],"35.5 µM [rising, partial curve, poor fit]"
same,max response,[8]; [19],65.4%
O=S(=O)(c1cccc2c(I)cccc12)N1CCCNCC1,AC50,[1]; measured here: GFP channel,"35.5 µM [falling, single point]"
same,AC50,[1]; measured here: RFP channel,"35.5 µM [falling, single point]"
same,AC50,[6]; [13],"18.4 µM [falling, single point]"
same,AC50,[6]; [14],"9.2 µM [falling, partial curve, poor fit]"
same,AC50,[10]; measured here: PEO4 viability,"0.138 µM [falling, full curve, poor fit]"

# Reprinted from above (19 entries):
compound,measurement,setting,value
C/C(=C\c1ccc(C(=O)O)cc1)c1ccc2c(c1)C(C)(C)CCC2(C)C,AC50,[1]; measured here: GFP channel,"35.5 µM [falling, single point]"
same,AC50,[1]; measured here: RFP channel,"25.1 µM [falling, partial curve]"
same,AC50,[2]; [12],"84.9 µM [falling, partial curve, poor fit]"
same,AC50,[6]; [13],"7.31 µM [falling, partial curve]"
same,AC50,[6]; [14],"0.00651 µM [rising, full curve, poor fit]"
same,viability change,[3],-8.84%
same,max response,[7],87.4%
Clc1nccc2c1ccc1ccccc12,AC50,[1]; measured here: GFP channel,"12.6 µM [rising, single point]"
same,AC50,[1]; measured here: RFP channel,"12.6 µM [rising, single point]"
same,AC50,[2]; [15],"1.07 µM [rising, full curve, poor fit]"
same,viability change,[3],5.73%
CC(=O)N[C@@H](Cc1c[nH]c2ccccc12)C(=O)OCc1cc(C(F)(F)F)cc(C(F)(F)F)c1,AC50,[1]; measured here: GFP channel,"35.5 µM [rising, single point]"
same,max response,[8]; [16],81.1%
same,AC50,[8]; [17],"5.01 µM [rising, full curve]"
same,AC50,[8]; [18],"5.01 µM [rising, full curve]"
same,max response,[8]; [19],124%
COc1cc(NS(C)(=O)=O)ccc1Nc1c2ccccc2nc2ccccc12,AC50,[1]; measured here: GFP channel,"0.794 µM [falling, full curve]"
same,AC50,[1]; measured here: RFP channel,"0.794 µM [falling, full curve]"
same,AC50,[2]; [15],"26.9 µM [falling, partial curve]"
